# Source: PubChem BioAssay AID1347075 (National Center for Advancing Translational Sciences (NCATS), 2019)
# The campaign covered roughly 400,000 compounds. About 5,500 (1.4%) were called active. The shares of active, inactive and inconclusive entries below differ from those in the screen. Calls come from the whole dose curve; as a rule, active = well fitted cell-killing curve with a large enough effect; inconclusive = small, poorly fitted or top-dose-only effect, or effect the other way; inactive = flat fitted curve, though single readings scatter. A potency beside an inconclusive call is a rough fit, not a confirmed value.
# Test: qHTS assay for MDR1-selective chemotherapeutics: Primary screen using the parental adenocarcinoma cell KB-3-1; note: nearly all actives have a fitted effect of over 60% in size
# Conditions: KB-3-1 viability, CellTiter-Glo ATP luminescence, 72 h; activity change, negative = cytotoxic: at 46.1 µM (top of the series)
# How it was run: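 72 h, 37 °C compound treatment of KB-3-1 parental cells; CellTiter-Glo added, 10 min, luminescence read. Data corrected against DMSO-only plates and normalized before curve fitting.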
# % is set by controls: 0 for no effect and ±100 for the full control effect; potency is the fitted concentration of half-maximal effect.
SMILES,Potency,"activity change, negative = cytotoxic"
Cc1c(Br)c(-c2n[nH]c(=S)n2Cc2ccco2)nn1C,inactive,–
COc1ccccc1N1CCN(C(=O)CN2C(=O)COc3ccc(S(=O)(=O)N4CCOCC4)cc32)CC1,inactive,–
COC(=O)C[C@@H]1CC[C@H](NS(=O)(=O)c2ccccc2F)[C@@H](CO)O1,inactive,–
COc1cccc(OC)c1C(=O)Oc1ccc2c(c1)O/C(=C\c1ccncc1)C2=O,"inconclusive: 29.1 µM [cytotoxic, partial curve, poor fit]",–
COc1cc(NC(=O)C2=C(N3CCOCC3)/C(=C\c3ccc(N(C)C)cc3)CCC2)cc(OC)c1OC,active: 11.6 µM,–
Cc1cccc(C)c1NC(=O)C1CCCN1S(=O)(=O)c1ccc2c(c1)n(C)c(=O)c(=O)n2C (configuration not stated),inactive,–
COc1ccc(Nc2c3c(nc4ccc(C)cc24)CCC3)cc1,inactive,–
CCOc1c(Cl)cc(CNc2ccc(N3CCCC3)cc2)cc1OC,"inconclusive: 29.1 µM [cytotoxic, single point]",–
O=C(c1cccc(S(=O)(=O)N2CCc3ccccc32)c1)N1CCN(c2ccccn2)CC1,active: 6.51 µM,–
Cc1n[nH]c(=O)c2c(NC(=O)CSc3nc4ccccc4c(=O)n3-c3ccc(OC(F)F)cc3)oc(C)c12,"inconclusive: 7.31 µM [rising, partial curve, poor fit]",–
O=C(CN(C(=O)CCC(=O)Nc1ccccn1)C1CCCC1)NCc1ccccc1,inactive,–
NNC(=O)c1n[nH]c2c1CC(C1CCCCC1)CC2 (configuration not stated),inactive,–
Cc1ccc(N(CC(=O)Nc2cccc(Cl)c2C)S(C)(=O)=O)cc1,inactive,–
O=C1c2cccc3cccc(c23)C(=O)N1CC1CCN(CC(O)COCc2ccc3c(c2)OCO3)CC1 (configuration not stated),"inconclusive: 25.9 µM [cytotoxic, single point]",–
O=C1NCCN(Cc2ccc(Cl)c(F)c2)C1CC(=O)N1CCc2ccccc2C1 (configuration not stated),"inconclusive: 29.1 µM [rising, single point]",–
O=C(COC(=O)C1CCN(S(=O)(=O)c2ccccc2C(F)(F)F)CC1)NCc1ccc(F)cc1,inactive,–
C[C@H](CO)N1C[C@H](C)[C@H](CN(C)CC2CCCCC2)Oc2ccc(NS(=O)(=O)c3ccc(F)cc3)cc2CC1=O,"inconclusive: 29.1 µM [cytotoxic, single point]",–
CC[C@]12c3[nH]c4cc(-c5ccco5)ccc4c3CCN1C(=O)[C@@H](CC(=O)NC/C=C(\C)CCC=C(C)C)C[C@@H]2C(=O)N1CCN(C(=O)c2ccco2)CC1,"inconclusive: 29.1 µM [cytotoxic, partial curve, poor fit]",–
Cc1[nH]c(C)c(S(=O)(=O)NCc2ccccc2Cl)c1C(=O)N1CCCC1,"inconclusive: 1.64 µM [cytotoxic, full curve, poor fit]",–
COc1ccc([C@H]2CC(=O)C=C(c3cc(Br)ccc3OC)C2)cc1,"inconclusive: 20.6 µM [cytotoxic, single point]",–
Cn1ncc(SCc2ccccc2)c(Cl)c1=O,"inconclusive: 18.4 µM [cytotoxic, single point]",–
O=C(NC1CCCCCC1)c1cc2ccccc2oc1=O,–,inconclusive: 2.14%
CCCCN(C(=O)CSCc1ccc(C)cc1)c1c(N)n(CCC)c(=O)[nH]c1=O,inactive,–
CCN(CC)c1ccc(N=Cc2ccc(N(CC)CC)cc2O)cc1,"inconclusive: 29.1 µM [cytotoxic, single point]",–

# Entries of single compounds from above. Order of values: Potency | activity change, negative = cytotoxic
# `CCCCN(C(=O)CSCc1ccc(C)cc1)c1c(N)n(CCC)c(=O)[nH]c1=O` in the list: inactive | –
# `O=C1NCCN(Cc2ccc(Cl)c(F)c2)C1CC(=O)N1CCc2ccccc2C1` (configuration not stated) in the list: inconclusive: 29.1 µM [rising, single point] | –
# `COc1ccccc1N1CCN(C(=O)CN2C(=O)COc3ccc(S(=O)(=O)N4CCOCC4)cc32)CC1` in the list: inactive | –

# The results go on.

SMILES,Potency,"activity change, negative = cytotoxic"
Cc1nc(SCC(=O)N(C)Cc2ccco2)c2c(C)c(C)sc2n1,"inconclusive: 16.4 µM [cytotoxic, single point]",–
CCNCC(=O)N1c2ccccc2CCc2ccc(NC(=O)OCC)cc21,inactive,–
Cc1ccc(NC2=C(Cl)C(=O)c3ccccc3C2=O)cc1,"inconclusive: 16.4 µM [cytotoxic, partial curve, poor fit]",–
O=C(CNC(=O)c1n[nH]c2ccccc12)Nc1cc(Cl)ccc1Cl,"inconclusive: 29.1 µM [cytotoxic, single point]",–
COc1ccc(NC(=O)CCC(=O)N/N=C/c2ccc([N+](=O)[O-])s2)cc1,"inconclusive: 29.1 µM [rising, single point]",–
O=S(=O)(NCc1ccc(F)cc1)c1ccc(N2CCCCS2(=O)=O)cc1,"inconclusive: 23.1 µM [cytotoxic, single point]",–
O=C(/C=C\c1cn(-c2ccccc2)nc1-c1cccs1)N1CCOCC1,"inconclusive: 23.1 µM [rising, single point]",–
Clc1cnc(N/N=C/c2cccs2)c(Cl)c1,"inconclusive: 18.4 µM [cytotoxic, single point]",–
CCCCSc1nc2c([nH]1)c(=S)n(C)c(=O)n2C,active: 7.31 µM,–
CN(C(=O)c1cccc(NC(=O)C2CCCN(C(=O)OC(C)(C)C)C2)c1)C1CCCC1 (configuration not stated),"inconclusive: 18.4 µM [cytotoxic, single point]",–
CCOc1ccccc1CNCCCSc1nnnn1C,inactive,–
CCOC(=O)c1c(-c2ccccc2)oc2ccc(O)c(CN3CCN(C)CC3)c12,"inconclusive: 20.6 µM [cytotoxic, single point]",–
CC(=O)Nc1c(Cl)c(Cl)c2c(c1Cl)C(=O)c1cc(Cl)ccc1-2,active: 20.6 µM,–
CCCN(Cc1cc2cccc(C)c2[nH]c1=O)C(=O)c1cccc(Cl)c1,inactive,–
O=C(NNC(=O)c1ccc(F)cc1)c1ccncc1,inactive,–
CCn1cc(C(=O)N[C@@H](C)C(=O)NCCCn2ccnc2)c(=O)c2cc3c(cc21)OCO3,inactive,–
O=C(Nc1cccc(-c2nc3ccccc3s2)c1)c1cc(-n2cnnc2)ccc1Cl,"inconclusive: 16.4 µM [cytotoxic, single point]",–
COc1cc(/C=N/NC(=O)c2ccc(COc3cc(C)ccc3C(C)C)cc2)cc(OC)c1O,"inconclusive: 20.6 µM [cytotoxic, single point]",–
COc1ccc2c(Cn3cnc4cc([N+](=O)[O-])ccc4c3=O)cc(=O)oc2c1,active: 4.61 µM,–
Cc1nc(C)c(C(=O)N/N=C/c2cc(Br)ccc2O)s1,inactive,–
COc1ccccc1NC(=O)c1oc2ccccc2c1NC(=O)c1ccco1,–,inconclusive: -3.87%
COc1cc(/C=C(\C#N)C(=O)Nc2cccnc2)ccc1OC(C)C,"inconclusive: 0.0366 µM [rising, full curve]",–
Cc1ccc(/C=N/NC(=O)CCCOc2ccc(Cl)cc2Cl)cc1,"inconclusive: 20.6 µM [cytotoxic, single point]",–
COCCOC(=O)c1[nH]c2c(c1C)C(=O)CC(c1ccc(F)cc1)C2 (configuration not stated),active: 7.31 µM,–

SMILES,Potency,"activity change, negative = cytotoxic"
Cc1c(C)n(Cc2ccc(Cl)cc2)c2ccc(C(=O)NCCCN3CCOCC3)cc12,"inconclusive: 29.1 µM [cytotoxic, single point]",–
COC(=O)CN1CCN(C(=O)c2ccco2)CC1,inactive,–
Cc1ccc(S(=O)(=O)N2CCN(Cc3ccccc3Cl)CC2)cc1,"inconclusive: 20.6 µM [rising, single point]",–
O=S(=O)(c1ccccc1)[C@@]1(c2ccc(Br)cc2)C[C@@H]2ON=C(c3cccc(Br)c3)[C@@H]2C1,"inconclusive: 29.1 µM [cytotoxic, single point]",–
COc1ccc(C(OCC(O)CNCCc2ccc(S(N)(=O)=O)cc2)c2ccc(OC)cc2)cc1 (configuration not stated),inactive,–
Cc1cccc(CC(=O)NCC(=O)NCc2cc(=O)n(C)c(=O)n2C)c1,inactive,–
Cc1ccc(C2CC(=O)NC(SCC(=O)OCc3ccccc3)=C2C#N)o1 (configuration not stated),"inconclusive: 29.1 µM [cytotoxic, single point]",–
CC(C)Cn1cc(NC(=O)NCc2cccc(Cl)c2)c2ccccc2c1=O,inactive,–
COc1ccc(NC(=O)c2cccc(N3CCCS3(=O)=O)c2)c(OC)c1,inactive,–
COc1ccccc1CNC(=O)C1(C)CCN1C(=O)Cc1ccc(-c2ccccc2)cc1 (configuration not stated),"inconclusive: 29.1 µM [cytotoxic, single point]",–
COc1ccccc1Nc1nc(NCCO)nc(N)c1[N+](=O)[O-],"inconclusive: 29.1 µM [rising, single point]",–
CS(=O)(=O)c1ccc(C(=O)OCC(=O)NC(=O)NC2CCCCC2)cc1[N+](=O)[O-],"inconclusive: 29.1 µM [cytotoxic, single point]",–
COC1=C(OC)C(=O)C(Sc2ccc3ccccc3c2)=CC1=O,"inconclusive: 29.1 µM [cytotoxic, single point]",–
Cc1cccc(-n2ncc3c(NCc4ccco4)ncnc32)c1,"inconclusive: 4.61 µM [cytotoxic, full curve]",–
COc1cccc(CC(=O)OCC(=O)NCCc2ccc(F)cc2)c1,inactive,–
O=C(CCOc1ccccc1)N1CCN(c2ccc(O)cc2)CC1,"inconclusive: 20.6 µM [cytotoxic, single point]",–
COC(=O)c1ccccc1NC(=O)c1nc(-c2ccc(C)cc2)n2c1CCCCC2,"inconclusive: 29.1 µM [cytotoxic, single point]",–
O=C1NC(=Nc2ccccc2)S/C1=C\c1cccnc1,inactive,–
Cc1ccc(Nc2ccccc2N)cc1,active: 20.6 µM,–
c1coc(CNc2c3c(nc4ccccc24)CCC3)c1,"inconclusive: 23.1 µM [cytotoxic, single point]",–
O=C(NC(=S)Nc1ccc(CN2CCOCC2)cc1)c1ccc2c(c1)OCCO2,active: 18.4 µM,–
CCCS(=O)(=O)Nc1ccc(Nc2c3ccccc3nc3ccccc23)c(OC)c1,"inconclusive: 1.16 µM [cytotoxic, full curve, poor fit]",–
CC(CCc1ccccc1)NC(=O)C(=O)c1c[nH]c2ccccc12 (configuration not stated),inactive,–
Cc1c(Cl)cccc1NC(=S)N=Nc1c(O)n(CN2CCOCC2)c2ccccc12,"inconclusive: 1.46 µM [cytotoxic, full curve, poor fit]",–
